Results are given in words; binding and its absence hold for the method and conditions named. In cells and extracts the contact can be indirect. Some binding calls cover weakened binding; strength is not graded here.

Chains of the proteins cited; added tags and fusions are not shown. Lines headed by an entry give the natural chain unless they say otherwise; changes in a name come on top. Residues count along the entry.
UniProt Q9UBI1, residues 1-124: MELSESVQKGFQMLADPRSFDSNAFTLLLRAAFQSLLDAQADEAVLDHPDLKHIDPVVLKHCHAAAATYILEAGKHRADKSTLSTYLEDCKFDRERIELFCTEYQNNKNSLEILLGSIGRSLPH
UniProt P84077: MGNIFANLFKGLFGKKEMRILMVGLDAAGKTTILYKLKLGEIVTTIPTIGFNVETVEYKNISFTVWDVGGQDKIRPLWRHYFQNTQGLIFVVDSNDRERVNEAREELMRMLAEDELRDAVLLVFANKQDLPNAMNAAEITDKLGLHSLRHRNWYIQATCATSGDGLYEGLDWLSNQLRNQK

This test deals with 3xFLAG-tagged COMMD3-NTD (human) (UniProt Q9UBI1). Description: co-IP; HA-tagged ARF1 Q71L and 3xFLAG-tagged COMMD3-NTD co-expressed in 293T cells; immunoprecipitation with anti-FLAG antibodies, detection by immunoblotting. On the technique in general: Immunoblotting shows a protein as a band on a membrane.

In the case of “HA-tagged ARF1 Q71L (from UniProt P84077 1-181)”, the binding entry is reported as “binds”.
